# According to PubChem BioAssay AID1347076 (National Center for Advancing Translational Sciences (NCATS), 2019):
# Values joined by “and” are separate entries in the source; they are usually repeats but may differ in a detail not shown here. Identical values can stand only once. Out of some 400,000 compounds screened, about 13,000 (3.2%) were called active. The shares of active, inactive and inconclusive entries below differ from those in the screen. Calls follow the shape of the dose curve; as a rule, active = well fitted cell-killing curve with a large enough effect; inconclusive = small, poorly fitted or top-dose-only effect, or effect the other way; inactive = flat fitted curve, though single readings scatter. A potency beside an inconclusive call is a rough fit, not a confirmed value.
# Assay: qHTS assay for MDR1-selective chemotherapeutics: Primary screen using the drug-selected MDR subline cells KB-V1; also: nearly all actives have a fitted effect of over 60% in size
# Settings: KB-V1 MDR cells viability, CellTiter-Glo, 72 h; activity change, negative = cytotoxicity: at 46.1 µM (top of the series)
# How it was run: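 Potencies derive from concentration-effect curves fitted to normalized luminescence (CellTiter-Glo) of KB-V1 cells treated for 72 h at 37 degrees C in phenol-red-free DMEM containing 10% FBS.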
# % is scaled to controls: 0 for no effect and ±100 for the full control effect; potency is read from the fitted curve at half-maximal effect.
SMILES,Potency,"activity change, negative = cytotoxicity"
COC(=O)[C@]12CCCCC=C1N(Cc1cccc3ccccc13)C(=O)[C@H](CC(=O)NCCC(C)C)C2,active: 18.4 µM,–
C#CCOCCOCCOCCNc1nc(N2CCN(C(=O)CCCCCCCCCCNC(=O)[C@H](CCCCN)n3cc(C)nn3)CC2)nc(N2CCN(C(=O)CCCCCCCCCCNC(=O)[C@H](CCCN=C(N)N)n3cc(C[C@@H](C)CC)nn3)CC2)n1,"inconclusive: 20.6 µM [cytotoxic, single point]",–
CCOC(=O)c1[nH]c(C)c(C(=O)N2CCN(c3ccccc3)CC2)c1C,active: 16.4 µM,–
C/[N+]([O-])=C/c1c(OCc2ccccc2)ccc2ccccc12,"inconclusive: 2.91 µM [rising, partial curve, poor fit]",–
O=C(Nc1ccccc1F)C1CCN(S(=O)(=O)c2cccc3nonc23)CC1,–,inconclusive: -36.4%
Cc1cccc(Oc2cc([N+](=O)[O-])cc3c2C(=O)Nc2ccccc2O3)c1,active: 2.59 µM,–
NC(c1csc(NC(=O)Nc2ccccc2Oc2ccccc2)n1)c1ccccc1Cl (stereo unspecified),"inconclusive: 23.1 µM [cytotoxic, single point]",–
CCCNc1c(NS(=O)(=O)c2ccc(C(C)(C)C)cc2)c(=O)oc2ccccc12,–,inconclusive: 32.9%
O=C(Cn1cnc(Cl)c1Cl)c1ccc(F)cc1,–,inactive: -2.27%
CCCCCOc1ccc(C(=O)C(c2ccccc2)N2CCOCC2)cc1 (stereo unspecified),"inconclusive: 8.2 µM [cytotoxic, partial curve]",–
COc1ccc(NC(=O)C2CCC(C(C)(C)C)CC2)cc1S(=O)(=O)N1CCOCC1 (stereo unspecified),–,inactive: 14.5%
O=C(Nc1ccc(Br)cc1)c1ccc2ncsc2c1,"inconclusive: 25.9 µM [cytotoxic, single point]",–
O=c1c2ccccc2sn1-c1cccc(Cl)c1,"inconclusive: 25.9 µM [cytotoxic, single point]",–
CCOc1cccc(-c2nnc3sc(COc4ccccc4)nn23)c1,"inconclusive: 29.1 µM [cytotoxic, single point]",–
CCOc1ccc(NC(=O)c2cccnc2Cl)c([N+](=O)[O-])c1,"inconclusive: 18.4 µM [cytotoxic, single point]",–
COc1ccc(-c2noc(N3CCC(C(=O)Nc4ccccc4F)CC3)n2)cc1,"inconclusive: 32.6 µM [rising, single point]",–
Cc1ccc(OC(C)C(=O)N2CC(=O)Nc3ccccc32)c(C)c1 (stereo unspecified),"inconclusive: 23.1 µM [cytotoxic, single point]",–
Cc1cc(C(=O)CCl)c(C)n1CCc1ccc(F)cc1,"inconclusive: 23.1 µM [cytotoxic, single point]",–
O=C(/C=C/c1ccco1)Nc1cccc(S(=O)(=O)N2CCOCC2)c1,"inconclusive: 16.4 µM [cytotoxic, single point]",–
c1ccc(N2CCN(c3nc(-c4cccs4)nc4ccccc34)CC2)cc1,–,inactive: -25.2%
Cc1ccc(NC(=S)NCc2ccc3[nH]c4c(c3c2)CCCC4)cc1,–,inactive: 18.5%
COC(CNC(=O)C1CCN(C(=O)c2cc3oc(C)cc3n2Cc2c(F)cccc2Cl)CC1)OC,active: 8.2 µM,–
CN(C)c1cc2c3ccccc3ccc2c2ccccc12,–,inactive: 7.71%

SMILES,Potency,"activity change, negative = cytotoxicity"
CCN(CC)CCn1c(=N)n(CC(O)COc2cccc(C)c2)c2ccccc21 (stereo unspecified),–,inactive: -19.4%
C/C=C/c1ccc(OCC(=O)OCc2csc(Nc3ccc(C)cc3)n2)c(OC)c1,–,inactive: 0.474%
COc1cc(/C=N/Nc2ccc(F)cc2F)cc(OC)c1OC,"inconclusive: 18.4 µM [cytotoxic, partial curve, poor fit]",–
Cc1cc(OCC(=O)Nc2nccs2)c2c(C)c(C)c(=O)oc2c1,–,inactive: -5.19%
Cc1ccc(S(=O)(=O)N2CC3(O)CN(C(=O)OC(C)C)N(C(=O)OC(C)C)CC3(OC(=O)NC3CCCC3)C2)cc1 (stereo unspecified),–,inactive: 5.1%
COC(=O)C1=CN(c2ccc(C(C)(C)C)cc2)C(N)=C(C#N)C1c1cccc([N+](=O)[O-])c1 (stereo unspecified),"inconclusive: 4.61 µM [cytotoxic, partial curve, poor fit]",–
Cc1cccc(OCc2n[nH]c(=S)n2Cc2ccccc2)c1,–,inactive: -21.2%
COc1ccc(-c2oc3ccccc3c2C#Cc2cncn2C)cc1,"inconclusive: 29.1 µM [cytotoxic, single point]",–
Cc1ccc(C)c(-n2cc(CN3CCCN(C=O)CC3)c(-c3ccccc3)n2)c1,"inconclusive: 20.6 µM [cytotoxic, partial curve]",–
COc1ccccc1CNC(=O)CCn1c(=O)c2ccccc2n(CC(=O)Nc2cc(Cl)ccc2C)c1=O,–,inactive: -15.6%
COc1ccccc1NC(=O)Cn1nnc(C(=O)NCc2cccs2)c1N,active: 1.3 µM and active: 5.8 µM,–
O=C(Nc1ccc(N2CCOCC2)nc1)c1ccc(Cl)cc1,–,inactive: -14.5%
C#CCNC(=O)C[C@@H]1C[C@@]2(C(=O)OCC)CCCC=C2N(Cc2ccc(Cl)cc2Cl)C1=O,"inconclusive: 9.2 µM [cytotoxic, partial curve, poor fit]",–
O=C(COc1ccccc1Br)N1CCN(c2ccccc2)CC1,active: 18.4 µM,–
CCOc1ccccc1NC(=O)C1CCN(C(=O)c2cccs2)CC1,–,inactive: -22.9%
N=c1n(Cc2ccccc2)c2ccccc2n1CC(O)COc1ccccc1 (stereo unspecified),active: 20.6 µM,–
O=C(Nc1cccc(Cl)c1)N(Cc1nc2ccccc2c(=O)[nH]1)Cc1cccs1,active: 16.4 µM,–
c1ccc(CNc2ncnc3ccccc23)cc1,"active: 8.2 µM and inconclusive: 18.4 µM [cytotoxic, single point]",–
CCn1nc(C(=O)NNC(=O)COc2ccc(OC)cc2)c2ccccc2c1=O,"inconclusive: 10.3 µM [cytotoxic, partial curve]",–
CC(=O)Nc1nc(-c2ccc(Br)s2)cs1,–,inactive: 0%
COc1ccc(NC(=O)CSc2nc(C3CC3)nc3ccccc23)c(OC)c1,"inconclusive: 18.4 µM [cytotoxic, partial curve]",–
COc1ccc(CC(=O)N/N=C\c2cc(Br)c(O)c(Br)c2)cc1,"inconclusive: 29.1 µM [rising, single point]",–
C#Cc1cccc(NC(=O)CSc2nnc(-c3ccc(C(F)(F)F)cn3)o2)c1,"inconclusive: 29.1 µM [cytotoxic, single point]",–
